# Assay results taken from PubChem BioAssay AID504467 (National Center for Advancing Translational Sciences (NCATS), 2011).
# Hit rate of the full screen: of about 330,000 compounds, about 7,700 (2.3%) were called active. Inconclusive means that the source gave no clear call. Such entries were picked first, then a sample of the others. Calls come from the whole dose curve; as a rule, active = well fitted inhibition curve with a large enough effect; inconclusive = small, poorly fitted or top-dose-only effect, or effect the other way; inactive = flat fitted curve, though single readings scatter. Potencies beside an inconclusive call are fits to weak or partial responses and may not hold up.
# Assay: qHTS screen for small molecules that inhibit ELG1-dependent DNA repair in human embryonic kidney (HEK293T) cells expressing luciferase-tagged ELG1; note: nearly all actives have a fitted effect of over 55% in size
# Settings: HEK293T ELG1-luciferase reporter, luminescence, 16 h, DNA damage induced by 5-fluorouridine; series mostly up to 46.1 µM
# Method in brief: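 Step one: seed 2,000 cells per well. Step two: pin-transfer compound or DMSO alongside 5-fluorouridine. Step three: incubate 16 hr, 37 °C, 5% CO2. Step four: add ONE-Glo, wait 30 min, read luminescence.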
# Potency is the fitted concentration of half-maximal effect.
row,SMILES,Potency
1,CC1(C)Cc2c(C#N)c(SCCC#N)nc(N3CCOCC3)c2CO1,inactive
2,Cc1c(/N=C(\[O-])Nc2ccc(Br)cc2)sn[n+]1C,"inconclusive: 0.82 µM [activator, full curve]"
3,Cc1ccc(S(=O)(=O)NCCC(C)C)cc1[N+](=O)[O-],inactive
4,COc1ccc(N(C)S(=O)(=O)c2cccc(C(=O)NCc3ccc4c(c3)OCO4)c2)cc1,"inconclusive: 0.0103 µM [activator, full curve, poor fit]"
5,Nc1nc(Nc2ccccc2F)nc(NCCO)c1[N+](=O)[O-],"inconclusive: 13 µM [activator, partial curve, poor fit]"
6,Cc1cc(C)cc(N(CC(=O)NCc2ccco2)S(=O)(=O)c2ccccc2)c1,inactive
7,CC(C)C[C@@H](CN1C(=O)C(=O)NC[C@@H]1CC(C)C)NC(=O)Cc1ccccc1,"inconclusive: 23.1 µM [activator, partial curve, poor fit]"
8,N#Cc1c(-c2ccccc2)nc(-c2cccnc2)[nH]c1=O,inactive
9,NC(=O)Cc1ccc(C(=O)c2ccccc2)s1,"inconclusive: 14.6 µM [activator, partial curve, poor fit]"
10,COc1ccc(-n2c(SCC3OCCO3)nc3c(sc(=S)n3-c3ccccc3)c2=O)cc1OC,"inconclusive: 10.3 µM [inhibitor, partial curve, poor fit]"
11,Cc1ccccc1SCC(=O)N1CCN(c2ccc(C(F)(F)F)cn2)CC1,"inconclusive: 29.1 µM [inhibitor, single point]"
12,O=C(Nc1ccccc1C(F)(F)F)c1cc(-c2ccc(O)cc2)on1,"inconclusive: 16.4 µM [activator, partial curve]"
13,COc1ccccc1N1CCN(C(=O)c2ccccc2SCC(=O)NCc2ccco2)CC1,inactive
14,CC1CCN(CC(O)COc2ccc(F)cc2)CC1 (centres undefined),inactive
15,O=C(OCCc1cc2ccccc2c(=O)o1)c1cccs1,"inconclusive: 13 µM [activator, partial curve]"
16,CC(C)(C)c1ccc(OCC(=O)N/N=C/c2cc(Br)ccc2OC(=O)c2ccco2)cc1,"inconclusive: 3.55 µM [inhibitor, single point]"
17,CCN(CC)S(=O)(=O)c1ccc(N2CCOCC2)c(NC(=O)c2[nH]c(C)c(C(C)=O)c2C)c1,"inconclusive: 2.91 µM [activator, partial curve]"
18,COc1ccc(C(C)=O)cc1CSc1nnc(Nc2ccc(C)cc2)s1,"inconclusive: 18.4 µM [inhibitor, partial curve]"
19,O=C(COC(=O)c1ccc2[nH]c3c(c2c1)CCCC3)Nc1ccccc1Cl,"inconclusive: 32.6 µM [activator, partial curve, poor fit]"
20,CC1=CC2=NC(=O)/C(=C\c3cccn3CCOc3cccc(C)c3)C(=N)N2O1,active: 23.1 µM
21,Cc1c(C(=O)NCc2ccoc2)oc2ccc3c(c12)C(=O)CC(C)(C)O3,"inconclusive: 2.31 µM [activator, partial curve]"
22,C/C(=N\NC(=O)c1cc(C)[nH]n1)c1cccs1,"inconclusive: 6.51 µM [activator, partial curve]"
23,CCCc1cnc(N2CCN(C(=O)c3c(-c4ccccc4)noc3C)CC2)nc1,"inconclusive: 29.1 µM [inhibitor, single point]"

row,SMILES,Potency
1,O=C(Nc1nc2c(s1)CCCC2)c1ccc(Br)o1,"inconclusive: 2.31 µM [activator, partial curve]"
2,O=C1CCc2cc(S(=O)(=O)Nc3ccccc3F)ccc2N1,inactive
3,C=CCn1c(CNC(=O)c2cccs2)nnc1SCC(=O)c1ccc(Br)cc1,inactive
4,COc1cccc(NC(=O)c2ccc3c(c2)N(C)CCS3)c1,"inconclusive: 1.83 µM [activator, full curve]"
5,O=[N+]([O-])c1cc(CN2CCC(O)CC2)ccc1Cl,inactive
6,COc1ccccc1NC(=O)Cn1nnc(-c2ccccc2NC(=O)c2cccs2)n1,"inconclusive: 29.1 µM [inhibitor, single point]"
7,COc1ccc(NC(=O)CN(C)CC(=O)Nc2ccc(Cl)c(S(=O)(=O)N(C)C)c2)cc1,"inconclusive: 18.3 µM [inhibitor, partial curve]"
8,O=C(Nc1ccc(Cl)cc1)Nc1nnc(CSCc2ccccc2Cl)s1,active: 10.3 µM
9,O=C1c2ccccc2C(=O)N1CCCCc1cn(C[C@H]2CC[C@@H]([C@@H]3CC[C@H](Cn4cc(CCCCN5C(=O)c6ccccc6C5=O)nn4)O3)O2)nn1,"inconclusive: 16.4 µM [inhibitor, partial curve]"
10,Cc1cc(C)n(CC(O)COc2ccc3ccccc3c2)n1 (centres undefined),"inconclusive: 16.4 µM [activator, partial curve]"
11,Cc1ccc(NC(=O)Nc2ccc(Cl)c(Cl)c2)nc1,"inconclusive: 5.17 µM [activator, partial curve]"
12,Cc1cccc(-n2c(C)nc3c(cnn3-c3ccc(F)cc3)c2=O)c1,"inconclusive: 14.6 µM [inhibitor, partial curve]"
13,COc1ccccc1CN(Cc1nc2ccccc2c(=O)[nH]1)C(=O)Nc1ccccc1,"inconclusive: 20.6 µM [inhibitor, single point]"
14,Cc1c(C(=O)N(C)CCOc2ccccc2)oc2c(Cl)cccc12,"inconclusive: 14.6 µM [activator, partial curve]"
15,CC1CCN(S(=O)(=O)N2CCC(C(=O)NCc3ccc4c(c3)OCO4)CC2)CC1,"inconclusive: 29.1 µM [inhibitor, partial curve, poor fit]"
16,CCOc1cc(/C=C2\NC(=S)N(c3c(C)n(C)n(-c4ccccc4)c3=O)C2=O)ccc1O,inactive
17,c1ccc(-n2c(-c3ccncc3)nnc2-c2ccco2)cc1,"inconclusive: 16.4 µM [inhibitor, partial curve, poor fit]"
18,Cc1c(O)c2c3c(cccc3c1O)C(=O)N(c1ccccc1)C2=O,"inconclusive: 20.6 µM [inhibitor, single point]"
19,Oc1c(Br)cc(Br)cc1C=Nc1ccc2c(c1)OCCO2,"inconclusive: 6.51 µM [activator, single point]"
20,O=C(Nc1cscc1S(=O)(=O)c1ccc(Cl)cc1)c1ccccc1Cl,"inconclusive: 29.1 µM [inhibitor, single point]"
21,CCOc1c(Br)cc(C(=O)N2CCCN(C)CC2)cc1OC,inactive
22,Cc1nc(C)c(C(=O)Nc2ccc(C)c(F)c2)o1,"inconclusive: 23.1 µM [activator, single point]"
23,Cc1ccc(C(=O)NNC(=O)C2CCN(c3nccc(C)n3)CC2)cc1,inactive

# Reformatted with bars between the fields: part of the list above.
row | SMILES | Potency
5 | O=[N+]([O-])c1cc(CN2CCC(O)CC2)ccc1Cl | inactive
6 | COc1ccccc1NC(=O)Cn1nnc(-c2ccccc2NC(=O)c2cccs2)n1 | inconclusive: 29.1 µM [inhibitor, single point]
7 | COc1ccc(NC(=O)CN(C)CC(=O)Nc2ccc(Cl)c(S(=O)(=O)N(C)C)c2)cc1 | inconclusive: 18.3 µM [inhibitor, partial curve]
8 | O=C(Nc1ccc(Cl)cc1)Nc1nnc(CSCc2ccccc2Cl)s1 | active: 10.3 µM

# Further structures

row,SMILES,Potency
1,Cc1ccc(N2C(=O)C(Cl)=C(N3CCCCCC3)C2=O)cc1,"inconclusive: 18.3 µM [activator, single point]"
2,O=C(CCCCN1CCCCC1)c1ccc2c(c1)Cc1ccccc1-2,inactive
3,Cc1ccc(C(=O)NCc2cccnc2)o1,inactive
4,CCCCNC(=O)c1[nH]c(C)c(C(C)=O)c1C,"inconclusive: 2.31 µM [activator, single point]"
5,O=C(Cc1ccccc1)Nc1ccc(NC(=O)c2cccs2)cc1,"inconclusive: 18.3 µM [inhibitor, partial curve, poor fit]"
6,COCc1nc(-c2ccc(-c3ccc(C)cc3)nc2OC)no1,"inconclusive: 0.0058 µM [activator, full curve, poor fit]"
7,CC(C)C[C@H](NC(=O)c1nc[nH]c1C(=O)N(C)Cc1ccccc1)C(=O)OC(C)(C)C,"inconclusive: 7.3 µM [activator, partial curve]"
8,Cc1cc(C)c(C#N)c(N2CCOCC2)n1,"inconclusive: 0.231 µM [inhibitor, single point]"
9,O=C(NCCc1csc(-c2cccnc2)n1)c1ccccc1Br,"inconclusive: 23.1 µM [inhibitor, single point]"
10,CCOC(=O)c1sc(NC(=O)c2cncc(Br)c2)nc1C,"inconclusive: 2.59 µM [activator, full curve]"
11,Cc1cc(Nc2ccccc2)nc(N2CCOCC2)n1,inactive
12,Cc1cc(C)n(-c2cc(O)c(-n3nc(C)cc3C)cc2O)n1,inactive
13,COc1ccccc1NC(=O)CN(Cc1ccco1)C(=O)c1ccc(N2CCCC2=O)cc1,"inconclusive: 29.1 µM [inhibitor, single point]"
14,COc1cc(NC(=O)c2cnc(N)o2)cc(C(=O)Nc2cccc(C(F)(F)F)c2)c1,active: 14.6 µM
15,c1coc(-c2nnc3sc(Cc4cccs4)nn23)c1,"inconclusive: 0.651 µM [activator, single point]"
16,COc1ccc(NC(C)C(=O)Nc2cccc(S(=O)(=O)N3CCOCC3)c2)cc1OC (centres undefined),inactive
17,O=c1cc(CSc2ccccc2)[nH]c2ccccc12,active: 11.6 µM
18,Cc1nn2c(=O)cc(COC(=O)c3ccc(NC(=O)C(C)(C)C)cc3)nc2s1,"inconclusive: 29.1 µM [inhibitor, partial curve, poor fit]"
19,CCOc1c(Br)cc(CNc2ccc(N3CCN(C(C)=O)CC3)cc2)cc1OC,"inconclusive: 23.1 µM [inhibitor, single point]"
20,COc1cc(OC)cc(C(=O)Nn2cc(C(=O)Nc3c(F)cccc3F)c3ccccc3c2=O)c1,"inconclusive: 18.4 µM [inhibitor, partial curve]"
21,CCS(=O)(=O)N1CCC(c2nc(-c3ccc(C)cc3)no2)CC1,"inconclusive: 32.6 µM [inhibitor, single point]"
22,CCN(c1cccc(C)c1)S(=O)(=O)c1ccc(-c2cc(C)no2)s1,inactive
23,O=C(c1ccccc1NS(=O)(=O)c1ccc(F)cc1)N1CCCCC1,inactive
